Results on one substance are retold here after US20250144242A1.

Protein sequences, listed by entry. Tags and fused reporters are not part of them. Lines headed by an entry give the natural chain unless they say otherwise; changes in a name come on top. Residues count along the entry.
UniProt P49755: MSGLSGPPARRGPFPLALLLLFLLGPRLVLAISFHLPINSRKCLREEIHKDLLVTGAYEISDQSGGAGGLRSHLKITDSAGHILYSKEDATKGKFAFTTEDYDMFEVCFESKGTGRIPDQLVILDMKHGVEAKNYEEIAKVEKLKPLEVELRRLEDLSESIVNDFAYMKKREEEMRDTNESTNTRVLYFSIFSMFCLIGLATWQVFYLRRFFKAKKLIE
UniProt P01344, residues 25-180: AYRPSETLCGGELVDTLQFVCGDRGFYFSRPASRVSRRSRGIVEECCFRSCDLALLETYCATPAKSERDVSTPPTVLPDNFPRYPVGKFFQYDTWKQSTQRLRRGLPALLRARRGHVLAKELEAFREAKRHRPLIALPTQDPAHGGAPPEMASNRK

Results are given in words; binding and its absence hold for the method and conditions named. Binding seen in cells or lysates may run through a third protein. A result given as binding can be weak or reduced; the word gives no strength.

The target of the assay is FLAG-tagged TMED10^1-130 (human) (UniProt P49755). Kind of assay: co-immunoprecipitation on anti-FLAG beads, DSP-crosslinked HEK293T lysates, immunoblot. For orientation: In western blotting, separated proteins are transferred to a membrane and probed.

Take “3×HA-tagged IGF2 (IGF2-HA), human (from UniProt P01344 25-180) (ligand)”: the binding entry was “binds”.
